According to patent US20100068766A1, “COMPOSITION FOR CLEAVING AND/OR CONNECTING SINGLE STRAND DNA” (WASEDA UNIVERSITY, priority 2007, published 2010):
These are yes or no findings as the source states them, for the method shown. For some assays here: In cells and extracts the contact can be indirect. Some entries that bind do so weakly or less than the wild type.

T1: Rad51B protein (UniProt O15315)
T1 sequence (looked up): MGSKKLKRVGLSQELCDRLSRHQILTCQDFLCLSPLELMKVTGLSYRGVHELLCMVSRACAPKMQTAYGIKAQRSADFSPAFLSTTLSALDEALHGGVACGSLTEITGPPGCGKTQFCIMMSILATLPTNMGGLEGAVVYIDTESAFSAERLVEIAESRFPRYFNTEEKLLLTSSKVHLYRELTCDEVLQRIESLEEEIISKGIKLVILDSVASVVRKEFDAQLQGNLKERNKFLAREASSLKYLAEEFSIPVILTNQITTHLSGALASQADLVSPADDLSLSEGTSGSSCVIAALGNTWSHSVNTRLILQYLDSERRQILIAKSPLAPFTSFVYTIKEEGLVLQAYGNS

T2: human Ev1 protein (NCBI accession No. AAF21709) (human) (UniProt Q9UI08)
T2 sequence (looked up): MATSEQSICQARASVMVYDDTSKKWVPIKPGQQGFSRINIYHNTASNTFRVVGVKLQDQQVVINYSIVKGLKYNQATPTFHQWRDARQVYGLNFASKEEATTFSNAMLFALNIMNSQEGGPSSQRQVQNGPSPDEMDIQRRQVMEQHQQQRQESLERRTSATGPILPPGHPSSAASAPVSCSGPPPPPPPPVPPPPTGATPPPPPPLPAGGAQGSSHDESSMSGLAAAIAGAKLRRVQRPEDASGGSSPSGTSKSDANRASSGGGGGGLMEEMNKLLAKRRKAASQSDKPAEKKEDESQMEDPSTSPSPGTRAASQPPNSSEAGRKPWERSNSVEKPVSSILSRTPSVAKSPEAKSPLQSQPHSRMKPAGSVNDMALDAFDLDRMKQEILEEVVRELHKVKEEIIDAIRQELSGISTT


Key:
Rad51B protein [1] = target: T1, Rad51B protein; test: pull-down with purified proteins on Affi-Gel 10 beads
Rad51B protein [2] = target: T1, Rad51B protein; test: pull-down, Rad51B coupled to Affi-Gel 10 beads, SDS-PAGE, Coomassie stain
Rad51B protein [3] = target: T1, Rad51B protein; test: pull-down with protein-coupled Affi-Gel 10 beads, SDS-PAGE, Coomassie stain
Rad51B protein [4] = target: T1, Rad51B protein; test: pull-down, Rad51B coupled to Affi-Gel 10 beads, 10 µg Ev1, SDS-PAGE, Coomassie stain
[5] = target: T2, human Ev1 protein (NCBI accession No. AAF21709) (human); test: pull-down, Ev1 coupled to Affi-Gel 10 beads, 10 µg Rad51B, SDS-PAGE, Coomassie stain

Row | binding (Rad51B protein [1]) | binding (Rad51B protein [2]) | binding (Rad51B protein [3]) | binding (Rad51B protein [4]) | binding [5] | Binder
1 | binds | binds | binds | binds |  | human Ev1 protein (NCBI accession No. AAF21709) (protein, UniProt Q9UI08-2 1-418, looked up) MATSEQSICQARASVMVYDDTSKKWVPIKPGQQGFSRINIYHNTASNTFRVVGVKLQDQQVVINYSIVKGLKYNQATPTFHQWRDARQVYGLNFASKEEATTFSNAMLFALNIMNSQEGGPSSQRQVQNGPSPDEMDIQRRQVMEQHQQQRQESLERRTSATGPILPPGHPSSAASAPVSCSGPPPPPPPPVPPPPTGATPPPPPPLPAGGAQGSSHDESSMSGLAAAIAGAKLRRVQRPEDASGGSSPSGTSKSDANRASSGGGGGGLMEEMNKLLAKRRKAASQSDKPAEKKEDESQMEDPSTSPSPGTRAASQPPNSSEAGRKPWERSNSVEKPVSSILSRTPSVAKSPEAKSPLQSQPHSRMKPAGSVNDMALDAFDLDRMKQEILEEVVRELHKVKEEIIDAIRQELSGISTT
2 |  |  |  |  | binds | Rad51B protein (protein, UniProt O15315-1 1-350, looked up) MGSKKLKRVGLSQELCDRLSRHQILTCQDFLCLSPLELMKVTGLSYRGVHELLCMVSRACAPKMQTAYGIKAQRSADFSPAFLSTTLSALDEALHGGVACGSLTEITGPPGCGKTQFCIMMSILATLPTNMGGLEGAVVYIDTESAFSAERLVEIAESRFPRYFNTEEKLLLTSSKVHLYRELTCDEVLQRIESLEEEIISKGIKLVILDSVASVVRKEFDAQLQGNLKERNKFLAREASSLKYLAEEFSIPVILTNQITTHLSGALASQADLVSPADDLSLSEGTSGSSCVIAALGNTWSHSVNTRLILQYLDSERRQILIAKSPLAPFTSFVYTIKEEGLVLQAYGNS
